The nature of this assay: qHTS Assay to Find Inhibitors of Chronic Active B-Cell Receptor Signaling. The settings on record: ABC-DLBCL IkBa-CBG/CBR reporter, luminescence ratio (green luciferase fused to IkBa over red control in TMD8 lymphoma cells), 4 h. Put shortly: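 Compounds up to 46 uM were incubated four hours with TMD8 cells whose green CBG68 luciferase is fused to IkappaBalpha; red CBR luminescence normalised the signal, and concentration-effect curves were fitted to fusion, red and ratio data.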

The mark [1] stands for this setting: measured here: CBR red luminescence, cell number.
[2] abbreviates: measured here: IkBa-CBG green luminescence.

Broadly, the AC50 is the concentration at which the activity in the assay is half-maximal.

SMILES strings stand for the structures. This is one part of the list. These are further read-outs of the screen, such as a control signal, another cell line or another target. No call is given for them. Compounds called inactive in the main read-out are mostly missing here. Words in brackets tell the shape of the fitted curve; partial curves, single points and poor fits give uncertain potencies. Peptide text beside a SMILES is read from it. * marks the point of attachment. Cbz = O=C(OCc1ccccc1)*

With `Cc1cc(C)c(NC(=O)CSc2nc3ccc(NC(=O)CSc4nnnn4-c4ccccc4)cc3s2)c(C)c1`, under setting [1], the AC50 was 13 µM [rising, partial curve, poor fit]. Consider `COc1ccc(C(=O)NCCc2c[nH]c3ccccc23)cc1[N+](=O)[O-]`, for which the AC50 under setting [1] was 6.31 µM [falling, partial curve]. Same read-out and setting: for `N/C(=N\OC(=O)c1cccc(Br)c1)c1ccccc1` the value was 1.41 µM [rising, full curve, poor fit]. The same measure, in the same setting: with `Cc1cc(C(=O)CSc2nnc(-c3ccco3)o2)c(C)n1C` the figure was 4.61 µM [rising, full curve, poor fit]. The same measure, in the same setting: for `O=C(CN1C(=O)c2ccccc2C1=O)NN1C(=O)c2ccccc2C1=O` the value was 6.31 µM [falling, partial curve, poor fit]; for `COc1ccccc1C(=O)NC(=O)COC(=O)C1(C)CC1(Cl)Cl` (stereo unspecified), 0.461 µM [rising, full curve, poor fit]. For `CCCSc1nc(N2CCCC2)c2c(c1C#N)CC(C)(C)OC2`, the half-maximal activity concentration (AC50) under setting [1] is 12.6 µM [rising, single point]. On the same count and under the same terms, for `O=S(=O)(c1ccccc1Br)N(Cc1ccccc1)CC(O)COCc1ccccc1` (stereo unspecified) the value was 23.1 µM [falling, partial curve]; for `O=C(NC1CCCCCCC1)C1CCN(c2nc3ccccc3o2)CC1`, 32.6 µM [rising, single point]; for `CC(C)n1nc(C(=O)Nc2ccc(-n3cnnn3)cc2)c2ccccc2c1=O`, 16.4 µM [rising, single point]. On the same count and under the same terms, with `O=C(CS(=O)(=O)c1ccccc1)Nc1ncc([N+](=O)[O-])s1` the figure was 11.2 µM [falling, partial curve]. `O=C(COC(=O)c1ccc(O)cc1)NCCc1c[nH]c2ccccc12`: under setting [2], the AC50 is 20.6 µM [falling, partial curve, poor fit].

Turning to `COC(=O)C(C)NC(=O)C1CCCN1C(=O)CNC(=O)OCc1ccccc1` (stereo not drawn) (Cbz-Gly-Pro-Ala-OMe; configuration not given here), under setting [1], the AC50 is 11.2 µM [rising, partial curve]. Turning to `Oc1ccc2ccccc2c1N=Nc1nccs1`, under setting [1], the AC50 is 3.16 µM [rising, full curve]. Still for that read-out and setting: with `CCOC(=O)c1cnn(-c2ccccc2)c1-n1cccc1C(=O)C(=O)Nc1ccccc1` the figure was 35.5 µM [falling, single point]; with `COc1cccc(C=Nc2ccccc2C#N)c1O`, 23.1 µM [rising, partial curve, poor fit]. On the same count and under the same terms, for `CCc1cccc(C)c1NC(=O)COC(=O)c1cc([N+](=O)[O-])ccc1N1CCOCC1` the value was 14.6 µM [rising, partial curve, poor fit]; for `COc1ccc(NC(=O)Cn2nnc(C(=O)NCCc3ccc(OC)c(OC)c3)c2N)c(OC)c1`, 5.01 µM [rising, full curve, poor fit]; for `CCn1nc(NS(=O)(=O)c2ccccc2)c2cc3ccc(C)cc3nc21`, 11.2 µM [rising, single point]. Same read-out and setting: with `N#CC(c1ccccc1)N(CCCCl)C(=O)c1ccc(Br)cc1` (stereo unspecified) the figure was 18.4 µM [falling, single point]. Consider `COc1ccc(-c2noc(CSc3nc4ccccc4c(=O)n3-c3ccccc3)n2)cc1`, for which the AC50 under setting [1] was 29.1 µM [falling, single point]. On the same count and under the same terms, with `Cc1cccc(-c2cnn(-c3ccccc3)c2N)c1` the figure was 12.6 µM [falling, single point]. Take `Cn1c(=O)oc2cc(S(=O)(=O)N3CCC(C(=O)N4CCc5ccccc5C4)CC3)ccc21`: under setting [1], the AC50 was 29.1 µM [rising, single point]. `O=C(CSc1cccc[n+]1[O-])CSc1cccc[n+]1[O-]`: the AC50 reads like this: under setting [1], 0.631 µM [falling, partial curve, poor fit]; under setting [2], 0.631 µM [falling, partial curve, poor fit]. Take `Cc1cccc(Cn2ncc(Cl)c(Cl)c2=O)c1`: the AC50 under setting [1] was 8.91 µM [falling, partial curve]. Still for that read-out and setting: with `CCCC(=O)N1CCN(c2nc3ccccc3s2)CC1` the figure was 3.55 µM [rising, partial curve, poor fit]. Regarding `Cc1cc(C)c(-c2csc(NC(=O)/C=C/c3cccs3)n2)c(C)c1`, the AC50 under setting [1] was 7.31 µM [falling, partial curve] and the AC50 under setting [2] was 18.4 µM [rising, partial curve]. `O=C(Nc1ccc(NC(=O)c2ccc3c(c2)OCCO3)cc1)c1ccccc1`: under setting [1], the AC50 is 22.4 µM [falling, single point]. For `CC(C)c1nc2cc(C(=O)N(C)C3CCOCC3)ccc2o1`, the AC50 under setting [1] was 8.91 µM [rising, partial curve].

On to `Cc1ccc(N2C(=O)C3N=NN(CC(=O)N4N=C(c5cccc6ccccc56)CC4c4ccccc4)C3C2=O)cc1` (stereo unspecified), for which the AC50 under setting [1] is 20.6 µM [rising, single point]. Same read-out and setting: for `Cc1ccc(S(=O)(=O)c2cc3c(=O)n4ccccc4nc3n(C)c2=N)cc1` the value was 7.31 µM [falling, single point]. As for `Cc1ccc(S(=O)(=O)N(C)CCCC(=O)Nc2cccc3ccccc23)cc1`, the AC50 under setting [2] is 14.6 µM [falling, partial curve, poor fit].

On to `CCc1ccc(-c2nc(CSCC(=O)N3CCN(c4ccccn4)CC3)c(C)o2)cc1`, for which the AC50 under setting [1] is 35.5 µM [falling, single point]. `CCS(=O)(=O)N1CCC2(CC1)OCCN2S(=O)(=O)c1ccc(OC)cc1`: the AC50 under setting [1] was 0.291 µM [falling, full curve].

For the compound `COC(=O)c1nn(-c2ccccc2)c(-c2ccccc2)c1C(=O)c1ccccc1`, the AC50 under setting [1] was 5.01 µM [falling, partial curve, poor fit]. Still for that read-out and setting: for `COC(=O)C(CC(C)C)NC(=O)/C=C/c1ccccc1Cl` (stereo unspecified) the value was 1.64 µM [rising, partial curve, poor fit]; for `CCc1ccc(-n2c(O)c(C=NCCN(CC)CC)c(=O)[nH]c2=O)cc1`, 0.398 µM [rising, full curve, poor fit].

On to `O=C(Nc1cc(C(F)(F)F)ccc1N1CCOCC1)c1cn2ccccc2n1`, for which the AC50 under setting [1] was 1.3 µM [falling, full curve]. Same read-out and setting: for `CCC(=O)c1ccc(OCCSc2ncccn2)cc1` the value was 4.11 µM [rising, single point].
